Data as given in PubChem BioAssay AID652272 (Drosophila RNAi Screening Center, 2013)
The screen tested about 21,000 reagents; this is an unselected part of those with a known target gene and a result. Of all reagents, 503 (2.4%) were called active. 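Raw plate light values, not normalised; calls rest on replicate z-scores that were not deposited; hits include reporter decreases as well as increases.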 Entries without a mark were called inactive. Reagents against one gene are numbered here. Names joined by + are all predicted targets of the reagent. Not given: the amount of reagent, the time to read-out.

- Screen: 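Genome-wide knock-down search for components of Hedgehog signalling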 (primary screen)
- System: Drosophila clone 8 (Cl8) cells
- Knock-down reagent: long dsRNA against Drosophila genes
- Detection: 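Firefly light from a Hedgehog-responsive ptc promoter reporter and Renilla reference light, both read on a plate reader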
- Reading the numbers: firefly Hh reporter signal: higher = more ptc reporter light; Renilla reference signal: higher = more Renilla control light
- Active means: 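Hit when the z-score averaged over two replicates is under -2 or over +3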
- Calls: active = hit: reporter lowered or raised; inactive = not a hit

gene knocked down	dsRNA no.	firefly Hh reporter signal, replicate 1	firefly Hh reporter signal, replicate 2	Renilla reference signal, replicate 1	Renilla reference signal, replicate 2
sala + CG43355	1	8.07e5	2.49e5	41110	10731
sala + CG43355	2	86765	70614	2512	6704
Ugt36D1 (UDP-glycosyltransferase family 36 member D1)	1	79778	72325	3579	3079
v (vermilion)	1	1.02e5	64187	2370	1481
CG11110	1	75093	55440	2871	4098
Mob2	1	39472 (active)	1.26e5	1797	6416
Mob2	2	1.09e5	2.47e5	3213	10037
Mob2	3	1.03e5	67381	4513	2952
CG17261	1	1.57e5	54487	3765	6480
CG11275	1	1.00e5	81916	1714	6966
por (porcupine)	1	1.19e5	3.30e5	2496	12134
Or10a (Odorant receptor 10a)	1	92923	2.69e5	2979	9501
CR33221 (pseudo)	1	7.43e5	3.04e5	44421	7417
CG34462	1	63568	55331	8160	4378
pst (pastrel)	1	65248	39747	3072	1696
RpL27A (Ribosomal protein L27A)	1	38589 (active)	17936	2061	3404
CG4282	1	77477	92252	3776	3603
kay (kayak)	1	56121	2.58e5	12940	6010
kay (kayak)	2	33080	24043	904	860
kay (kayak)	3	54322	46368	1574	1463
RpL35A (Ribosomal protein L35A)	1	27238 (active)	37985	2034	2380
glob1 (globin 1)	1	1.27e5	78012	4144	3177
Vps25 (Vacuolar protein sorting 25)	1	94754	32199	2676	3063
pes (peste)	1	77692	60275	1922	4881
ImpE1 (Ecdysone-inducible gene E1)	1	66902	68373	7645	5029
ImpE1 (Ecdysone-inducible gene E1)	2	45748	44984	5714	3850
CG15141	1	57348	48772	2508	1613
CG15141	2	1.12e5	67689	2826	6032
CG3764	1	65995	82210	3111	3418
CG6695	1	95590	86135	3928	3529
CR40354 (pseudo)	1	6.56e5	1.93e5	34808	4087
CG7252	1	2.14e5	1.26e5	8690	4720
CG33230	1	99872	68183	4720	2791
Ugt302C1 (UDP-glycosyltransferase family 302 member C1)	1	92344	92440	3332	3044
Calx (Na/Ca-exchange protein)	1	65492	2.33e5	13632	5184
Calx (Na/Ca-exchange protein)	2	54820	2.31e5	11300	5560
Calx (Na/Ca-exchange protein)	3	6.16e5	1.37e5	33776	3980
CG3348	1	78316	1.20e5	2724	3926
clu (clueless)	1	1.47e5	63940	4960	2353
CG13712	1	86357	80736	7457	5641
CG1441	1	1.16e5	73588	4550	2653
mRpL3 (mitochondrial ribosomal protein L3)	1	79036	2.32e5	3098	8705
CG2121	1	84807	94904	3432	3728
CG2121	2	1.21e5	55900	3242	5305
CG31300	1	5.22e5	1.29e5	22808	3353
mahe (maheshvara)	1	1.01e5	85138	1780	1626
sowah (sosondowah)	1	1.21e5	1.80e5	3738	8449
sowah (sosondowah)	2	1.10e5	99024	4352	4122
CG5783	1	1.23e5	64508	3114	5193
Tpl94D (Transition protein-like 94D)	1	53161	2.33e5	10998	4608
Stim (Stromal interaction molecule)	1	74315	61521	1233	1269
CG3355	1	75844	28717	2049	3096
Diedel2 (Diedel 2)	1	49383	2.59e5	12355	6048
CG13625	1	91200	76754	4619	4251
Spn77Bb + Spn77Bc	1	1.47e5	1.51e5	4641	4509
Spn77Bb + Spn77Bc	2	1.11e5	1.58e5	3773	4427
DIP-iota (Dpr-interacting protein iota)	1	77990	50741	1659	4720
e(y)2 (enhancer of yellow 2)	1	56806	1.79e5	2091	7355
Xport-A + Xport-B	1	92204	83683	4170	3472
Dad1 (Defender against apoptotic cell death 1)	1	1.15e5	67627	2811	4160
Aldh-III (Aldehyde dehydrogenase type III)	1	1.81e5	90603	6651	2288
Stoml2 (Stomatin like 2)	1	1.57e5	1.25e5	6273	4832
CG31126	1	6.28e5	1.21e5	34473	3515
Trc8 (TRC8 ring finger protein)	1	96874	99738	2658	2726
Vmat + CG13330	1	1.20e5	56016	4762	2243
AgmNAT (Agmatine N-acetyltransferase)	1	55197	1.90e5	2257	7276
Cse1 (Chromosome segregation 1)	1	34264	26727	1717	1385
Pfas (Phosphoribosylformylglycinamidine synthase)	1	1.13e5	76108	4437	2790
betaTub65B (beta-Tubulin at 65B)	1	88489	94439	9421	6320
zyd (zydeco)	1	1.04e5	1.91e5	4272	8594
Surf4 (Surfeit 4)	1	60082	70256	2018	1748
Rpp25 (Ribonuclease P/MRP subunit p25)	1	1.35e5	83121	3329	4327
CG5466	1	2.28e5	12980	14419	529

Hits, among the entries above:
gene knocked down	dsRNA no.	firefly Hh reporter signal, replicate 1	firefly Hh reporter signal, replicate 2	Renilla reference signal, replicate 1	Renilla reference signal, replicate 2
Mob2	1	39472 (active)	1.26e5	1797	6416
RpL27A (Ribosomal protein L27A)	1	38589 (active)	17936	2061	3404
RpL35A (Ribosomal protein L35A)	1	27238 (active)	37985	2034	2380
